“And” between values parts separate entries of the source, which are not always exact repeats. Equal values may be shown once. This is one part of the list. Most values come without repeats; read them as rough.

The subject of the assay is Geomyces destructans. Put plainly: growth inhibition relative to DMSO control; higher = stronger growth inhibition. Conditions: 10 µM; 15 °C; incubation time 10 days.
Consider `COc1ccc2c(c1)OCC(Cc1ccc(OC)c(OC(C)=O)c1)C2=O` (centres undefined), for which the growth inhibition came out at 23.4%.

Take `C[C@H](C[C@@H](O)[C@@H]1OC1(C)C)[C@@H]1CC[C@]2(C)C3=CC[C@H]4C(C)(C)C(=O)CC[C@]4(C)[C@H]3CC[C@@]12C`: the growth inhibition was -6.96%.

With `COC(=O)[C@@H]1OC(=O)C2OC23[C@@]1(C)CCC1[C@]2(C)C(C[C@H](O)[C@]13C)C(C)(C)[C@H](OC(C)=O)C[C@@H]2OC(C)=O` (stereo partly drawn) [7beta-HYDROXY-7-DESACETOXYKHIVORINIC ACID, METHYL ESTER], the growth inhibition was 0.78%.

On to `CC(=O)Nc1ccc(O)cc1`, for which the growth inhibition is -39.9%.

For `CC(=O)Oc1c(C)c(C)c2c(c1C)CCC(C)(CCCC(C)CCCC(C)CCCC(C)C)O2` (stereo not drawn) [alpha-TOCHOPHERYL ACETATE], the growth inhibition is -35.9%.

For the compound `NCCCC(N)C(=O)O` (centres undefined), the growth inhibition was 12.1%.

With `CCCCC(CC)CN=C(N)N=C(N)NCCCCCCNC(N)=NC(N)=NCC(CC)CCCC` (centres undefined), the growth inhibition was 88.8%.

`COC(=O)C(C)c1ccc(C(=O)c2cccs2)cc1` (centres undefined): the growth inhibition is -28.4%.

In the case of `CN(C)[C@@H]1C(O)=C(C(N)=O)C(=O)[C@@]2(O)C(O)=C3C(=O)c4c(O)ccc(Cl)c4[C@@](C)(O)[C@H]3C[C@@H]12`, the growth inhibition is -5.23% and 16.5%.

Regarding `CC(=O)OCC1=C(C(=O)O)N2C(=O)[C@@H](NC(=O)CSc3ccncc3)[C@H]2SC1`, the growth inhibition worked out at 1.62%.

In the case of `Cc1cc(=O)c2c(O)c(C)c(O)cc2o1`, the growth inhibition is -17.9%.

With `C[C@]12CC[C@@H]3c4ccc(O)cc4CC[C@H]3[C@@H]1CCC2=O`, the growth inhibition turned out to be 8.79%.

`CC(=O)OC1CCC2(C)C3=C(CC[C@H]2C1(C)C)[C@@]1(C)CC[C@@H]([C@@H](C)CCC=C(C)C)[C@]1(C)CC3` (some centres undefined): the growth inhibition is -3.33%.

As for `CC(=O)OCC(=O)[C@@]1(O)CC[C@H]2[C@@H]3C[C@H](C)C4=CC(=O)C=C[C@]4(C)[C@H]3[C@@H](O)C[C@@]21C` [6alpha-METHYLPREDNISOLONE ACETATE], the growth inhibition was -17.2%.

As to `CCOC(=O)C1=C[C@]2(CC)CCCN3CCc4c(n1c1ccccc41)[C@@H]32`, the growth inhibition was -7.71%.

`CC(=O)c1cc2c(cc1O)OC(C)(C)C=C2`: the growth inhibition was -16%.

For the compound `COc1cnc(NS(=O)(=O)c2ccc(N)cc2)nc1`, the growth inhibition turned out to be 0.5%.

On to `O=C(O)CCC(=O)Nc1ccc(S(=O)(=O)Nc2nccs2)cc1`, for which the growth inhibition was -5.39%.

In the case of `Cc1cccc(CN2CCN(C(c3ccccc3)c3ccc(Cl)cc3)CC2)c1` (centres undefined), the growth inhibition was 1.31%.

On to `C=C1C[C@]23C[C@@]1(O)CC[C@H]2[C@@]12C=C[C@H](O)[C@@](C)(C(=O)O1)[C@H]2[C@@H]3C(=O)O`, for which the growth inhibition was -21.5%.

For the compound `COC(=O)c1c(OC)cc2c(c1C)Oc1c(Cl)c(OC(C)=O)c(Cl)c(C)c1C(=O)O2`, the growth inhibition is -2.68%.

Regarding `COc1cc(O)cc(/C=C/c2ccccc2)c1`, the growth inhibition is 24.7%.

Regarding `COc1ccc(-c2cc(=O)c3c(O)cc(O[C@@H]4O[C@H](CO[C@@H]5O[C@@H](C)[C@H](O)[C@@H](O)[C@H]5O)[C@@H](O)[C@H](O)[C@H]4O)cc3o2)cc1O`, the growth inhibition is -1.21%.

As for `COC(=O)C[C@H]1C(C)(C)[C@@H](O)[C@@H]2CC3=C4CC(O)O[C@@H](c5ccoc5)[C@]4(C)CCC3[C@@]1(C)C2=O` (stereo partly drawn) [3,16-DIDEOXYMEXICANOLIDE-3beta-DIOL], the growth inhibition is -2.38%.

Regarding `CC(=O)Oc1cc2c(c(C)c1OC(C)=O)CC1OC13[C@@]2(C)CC[C@@]1(C)C2C[C@](C)(C(=O)O)CC[C@]2(C)CC[C@]31C` (some centres undefined), the growth inhibition was found to be 6.09%.

As for `NC(=O)NC(=O)Cc1ccccc1`, the growth inhibition is -16.2%.

For `COc1cc(C)c(C(=O)Oc2cc(C)c(C(=O)O)c(O)c2C)c(O)c1C=O`, the growth inhibition stood at 7.71%.

Consider `c1ccc2[nH]c(-c3cscn3)nc2c1`, for which the growth inhibition is -5.57%.

For `CN1[C@@H](CC(=O)c2ccccc2)CCC[C@H]1C[C@H](O)c1ccccc1`, the growth inhibition is -1.6%.

With `C=C1C(=O)O[C@@H]2C[C@@]3(C)CCC[C@H](C)C3=C[C@H]12`, the growth inhibition is -36.1%.

On to `CC(C)(OC(=O)c1ccccc1)[C@@H]1Cc2cc3ccc(=O)oc3cc2O1`, for which the growth inhibition was -6.19%.

On to `CC1CCC(C(C)C)C(O)C1` (single isomer, unassigned; (-)), for which the growth inhibition is -7.71%.

Regarding `CNCCC(Oc1ccc(C(F)(F)F)cc1)c1ccccc1` (centres undefined), the growth inhibition is -22.5%.

In the case of `COc1ccc(C(=O)/C=C/c2ccccc2)cc1`, the growth inhibition was 5.74%.

As to `C=C1C2CCC3(C)C(c4ccoc4)OC(=O)CC13OC1CC(OC(C)=O)C(C)(C)C(CC(=O)OC)C12C` (stereo not drawn) [3beta-ACETOXYDEOXYANGOLENSIC ACID, METHYL ESTER], the growth inhibition is -8.54%.

In the case of `CCCCCCCCCCCCC[N+](C)(C)Cc1ccccc1`, the growth inhibition is 86.3%.

As for `O=S(=O)(O)CCS`, the growth inhibition is -3.31%.

For `CCn1cc(C(=O)O)c(=O)c2cnc(N3CCCC3)nc21`, the growth inhibition was -7.18%.

On to `CC(=O)[C@H]1CC[C@H]2[C@@H]3C[C@H](C)C4=CC(=O)CC[C@]4(C)[C@H]3[C@@H](O)C[C@]12C`, for which the growth inhibition was -2.05%.

Consider `O[C@H]1[C@H]2c3cc4c(cc3CN3CCC(=C[C@@H]1O)[C@H]23)OCO4`, for which the growth inhibition is -3.8%.

For `CCCCNC(=O)NS(=O)(=O)c1ccc(C)cc1`, the growth inhibition is -11.9%.

Consider `O=C(O)c1cc(-c2ccc(F)cc2F)ccc1O`, for which the growth inhibition worked out at 17.7%.

`COC(=O)[C@@H]1[C@H]2C[C@H]3c4[nH]c5ccccc5c4CCN3C[C@@H]2CC[C@@H]1O`: the growth inhibition is -33.6%.

Consider `C=C(C)[C@@H]1CC=C(C(=O)O)CC1`, for which the growth inhibition was found to be 41%.

As for `CC1(C)NC(=O)N(c2ccc([N+](=O)[O-])c(C(F)(F)F)c2)C1=O`, the growth inhibition was -32.6%.

For `CCCCCCc1ccc(O)cc1O`, the growth inhibition stood at 22.2%.

For `CC(C)=CCC[C@](C)(O)C1CC=C(C)CC1` (some centres undefined), the growth inhibition is -5.57%.

On to `CCOC(=O)C(=O)C1(C(=O)OCC)Oc2cc(OC)cc(OC)c2C(=O)C1c1ccccc1` (centres undefined), for which the growth inhibition is -14%.

Turning to `CC(C)NCC(O)COc1cccc2ccccc12` (centres undefined), the growth inhibition is -5.77%.

Consider `COC(=O)C[C@H]1C(C)(C)C(=O)[C@@H]2CC3=C4CC(=O)O[C@@H](c5ccoc5)[C@]4(C)CC[C@@H]3[C@@]1(C)C2=O`, for which the growth inhibition was -18.7%.

Turning to `COc1ccc(C(=O)CC(=O)O)c2c1C=CC(C)(C)O2`, the growth inhibition was -1.43%.

Consider `COc1ccc2cc1Oc1ccc(cc1)C[C@H]1c3cc(c(OC)cc3CCN1C)Oc1c(OC)c(OC)cc3c1[C@H](C2)N(C)CC3`, for which the growth inhibition is -3.42%.

As to `Sc1nc2ccccc2s1`, the growth inhibition was -24.4%.

Turning to `O=C1CCc2cc(OCCCCc3nnnn3C3CCCCC3)ccc2N1`, the growth inhibition is -21.4%.

Turning to `CCS(=O)(=O)CCn1c([N+](=O)[O-])cnc1C`, the growth inhibition was -38%.

For the compound `COc1cc(OC)c2c(c1)OC(c1ccccc1)CC2=O` (centres undefined), the growth inhibition was -5.51%.

As for `CCCCOc1cc(C(=O)NCCN(CC)CC)c2ccccc2n1`, the growth inhibition was -6.08%.

Take `COc1ccc(CN(CCN(C)C)c2ccccn2)cc1`: the growth inhibition came to 5.69%.

For the compound `CCCNC(C)C(=O)Nc1ccccc1C` (centres undefined), the growth inhibition is -10.4%.

With `Nc1ncn([C@@H]2O[C@H](CO)[C@@H](O)[C@H]2O)c(=O)n1`, the growth inhibition was -3.31%.

Take `CC(COc1ccccc1)N(CCCl)Cc1ccccc1` (centres undefined): the growth inhibition is -6.23%.

Turning to `C=C1c2cccc(O)c2C(=O)C2=C(O)[C@]3(O)C(=O)C(C(N)=O)=C(O)[C@@H](N(C)C)[C@@H]3[C@@H](O)[C@H]12`, the growth inhibition was -17.3%.

As for `COc1cc2cc3c4cc(OC)c(OC)cc4cc[n+]3c(C)c2cc1OC`, the growth inhibition is -6.41%.

As for `C#CCCCCCCCCCCCC(=O)CC(O)COC(C)=O` (centres undefined), the growth inhibition is -5.92%.

For the compound `Cn1c(=O)c2nc[nH]c2n(C)c1=O`, the growth inhibition was -18.7%.

`CC(C)(C)NC[C@H](O)COc1nsnc1N1CCOCC1`: the growth inhibition is -22.2%.

In the case of `C[C@]12CCC(=O)C=C1CC[C@@H]1[C@@H]2[C@@H](O)C[C@@]2(C)[C@H]1CC[C@]2(O)C(=O)COC(=O)CCC(=O)O`, the growth inhibition is -5.11%.

Regarding `NC1(C(=O)O)CCCC1`, the growth inhibition was -6.14%.

For the compound `NCCCC[C@H](N[C@@H](CCc1ccccc1)C(=O)O)C(=O)N1CCC[C@H]1C(=O)O`, the growth inhibition is -6.22%.

For `O=C(Oc1cc(OC(=O)c2ccccc2)c2c(c1)O[C@H](c1ccc(OC(=O)c3ccccc3)c(OC(=O)c3ccccc3)c1)[C@@H](OC(=O)c1ccccc1)C2)c1ccccc1`, the growth inhibition worked out at 1.65%.

Turning to `COc1ccc(-c2coc3c(OC)c(O)ccc3c2=O)cc1`, the growth inhibition is -16.3%.

Turning to `O=C(Cc1cccs1)N[C@@H]1C(=O)N2C(C(=O)[O-])=C(C[n+]3ccccc3)CS[C@H]12`, the growth inhibition is -3.47%.

In the case of `CO/N=C(\C(=O)N[C@@H]1C(=O)N2C(C(=O)O)=C(CSc3nc(=O)c(O)nn3C)CS[C@H]12)c1csc(N)n1`, the growth inhibition was -7.99%.

With `CCOC(=O)OC(C)OC(=O)[C@@H]1N2C(=O)[C@@H](NC(=O)[C@H](N)c3ccccc3)[C@H]2SC1(C)C` (some centres undefined), the growth inhibition was -3.47%.

Take `CCOC(=O)[C@H](CCc1ccccc1)N[C@H]1CCc2ccccc2N(CC(=O)O)C1=O`: the growth inhibition was -25.7%.

`CC(=O)N[C@@H](CC(C)C)C(=O)O`: the growth inhibition was determined as 3.45%.

Take `Nc1nc(=O)c2nc(CNc3ccc(C(=O)N[C@@H](CCC(=O)O)C(=O)O)cc3)cnc2[nH]1`: the growth inhibition was -4.31%.

`CC[C@H]1OC(=O)[C@H](C)[C@@H](O[C@H]2C[C@@](C)(OC)[C@@H](O)[C@H](C)O2)[C@H](C)[C@@H](O[C@@H]2O[C@H](C)C[C@H](N(C)C)[C@H]2O)[C@](C)(O)C[C@@H](C)/C(=N\OCOCCOC)[C@H](C)[C@@H](O)[C@]1(C)O`: the growth inhibition stood at 0.462%.

Turning to `CC(C)(O)[C@@H]1Cc2cc3ccc(=O)oc3cc2O1`, the growth inhibition is -2.26%.

In the case of `COc1c2ccoc2nc2c(OC)c(OCC(O)C(C)(C)O)ccc12` (centres undefined), the growth inhibition was -32.1%.

As for `C#CCCCCCCCCCCCC(O)CC(O)CO` (centres undefined), the growth inhibition was -21.3%.

In the case of `COc1cc2ccc(=O)oc2c(OC)c1OC`, the growth inhibition was -11.5%.

Turning to `COc1ccc(-c2cc(=O)c3c(O)cc(O)cc3o2)cc1O`, the growth inhibition was -28.6%.

As for `CC(=O)OCC(COC(C)=O)OC(C)=O`, the growth inhibition was -14.5%.

Consider `O=C(Cn1ccnc1[N+](=O)[O-])NCCO`, for which the growth inhibition is -33.5%.

Consider `CCOc1cccc(C(=O)c2ccc(O)c(O)c2O)c1`, for which the growth inhibition turned out to be 16.3%.

In the case of `NC(=O)N1c2ccccc2C=Cc2ccccc21`, the growth inhibition was -9.35%.

As to `COc1ccc2c(c1)OCc1c-2oc2cc(OC)ccc12`, the growth inhibition was -3.77%.

On to `COc1ccc([C@H]2COc3c(ccc(O)c3OC)C2)c(OC)c1O`, for which the growth inhibition is -11.3%.

Regarding `CN(C)CCN(Cc1cccs1)c1ccccn1`, the growth inhibition was -10.4%.

With `O=C(O)c1cc2ccccc2[nH]1`, the growth inhibition is 5.41%.

For `O=c1c(O)cccc2cc(O)c(O)c(O)c12`, the growth inhibition was determined as 52.6%.

As for `Cc1ccc(S(=O)(=O)NC(=O)NN2CC3CCCC3C2)cc1` (centres undefined), the growth inhibition was -4.04%.

As for `COc1ccc(-c2cc(=O)c3c(O)cc(O)cc3o2)cc1`, the growth inhibition is -7.53%.

The values above are taken from the supplement of paper PMC3047530.
